In patent US20230112845A1, “COMPOSITIONS OF BERBERINE URSODE[…] METHODS THEREOF FOR TREATING FATTY LIVER DISEASE, DIABETES AND HYPERLIPIDEMIA” (SHENZHEN HIGHTIDE BIOPHARMACEUTICAL LTD., priority 2020, published 2023):

System: patients with presumed NASH and type 2 diabetes
Assay: Phase 2 trial: change in serum bile acids
Assay type: in vivo, human
Details: 1000 mg treatment group, Baseline to Week 18

SMILES: COc1ccc2cc3[n+](cc2c1OC)CCc1cc2c(cc1-3)OCO2.C[C@H](CCC(=O)[O-])[C@H]1CC[C@H]2[C@@H]3[C@@H](O)C[C@@H]4C[C@H](O)CC[C@]4(C)[C@H]3CC[C@]12C [BUDCA, berberine ursodeoxycholate]
- Primary bile acids and metabolites, Percent Change from Baseline, Mean: 114%
- Secondary bile acids and metabolites, Percent Change from Baseline, Mean: −13%
- Total bile acids, Percent Change from Baseline, Mean: 256%
- Urso bile acids, Absolute Change from Baseline, Median: 2072
- Urso bile acids, Percent Change from Baseline, Mean: 4741%
- Urso bile acids, Percent Change from Baseline, Median: 1975%
- Total bile acids, Absolute Change from Baseline, Mean (P vs Placebo 0.016): 1625
- Secondary bile acids and metabolites, Absolute Change from Baseline, Mean (P vs Placebo 0.459): −28
- Primary bile acids and metabolites, Absolute Change from Baseline, Mean (P vs Placebo 0.882): −171
- Urso bile acids, Absolute Change from Baseline, Mean (P vs Placebo <0.001): 1824
